Reference: PubChem BioAssay AID1671190 (National Center for Advancing Translational Sciences (NCATS), 2021)
Hit rate of the full screen: of about 580,000 compounds, about 6,100 (1.1%) were called active. The shares of active, inactive and inconclusive entries below differ from those in the screen. Calls follow the shape of the dose curve; as a rule, active = well fitted inhibition curve with a large enough effect; inconclusive = small, poorly fitted or top-dose-only effect, or another doubt; inactive = no such curve, though single readings can be large or run the other way. Where the call is inconclusive, the potency comes from a doubtful curve fit.
% is scaled to controls: 0 for no effect and ±100 for the full control effect; potency is read from the fitted curve at half-maximal effect.

The chains behind the UniProt entries cited, without tags or fusion partners. Where a name states a change or a piece, a line headed by the entry shows the natural chain unless it says otherwise.
UniProt P18054: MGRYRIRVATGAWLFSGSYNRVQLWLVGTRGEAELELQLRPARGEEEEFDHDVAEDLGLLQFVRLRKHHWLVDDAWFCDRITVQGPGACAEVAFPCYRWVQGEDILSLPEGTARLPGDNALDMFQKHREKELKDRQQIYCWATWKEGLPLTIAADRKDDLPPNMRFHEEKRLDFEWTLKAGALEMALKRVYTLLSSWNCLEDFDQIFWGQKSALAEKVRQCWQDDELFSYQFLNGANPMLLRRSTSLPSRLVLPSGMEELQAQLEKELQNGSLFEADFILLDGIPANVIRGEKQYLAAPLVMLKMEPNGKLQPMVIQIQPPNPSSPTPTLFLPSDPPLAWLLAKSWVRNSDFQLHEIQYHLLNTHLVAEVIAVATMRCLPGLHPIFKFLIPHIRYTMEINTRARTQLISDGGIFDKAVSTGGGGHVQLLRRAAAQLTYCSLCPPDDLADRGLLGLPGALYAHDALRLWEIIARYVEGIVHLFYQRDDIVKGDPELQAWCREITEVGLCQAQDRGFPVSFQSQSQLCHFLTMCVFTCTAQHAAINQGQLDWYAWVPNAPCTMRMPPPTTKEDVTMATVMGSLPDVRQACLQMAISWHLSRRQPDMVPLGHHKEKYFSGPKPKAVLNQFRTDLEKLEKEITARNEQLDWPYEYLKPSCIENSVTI

What follows are compounds tested against Polyunsaturated fatty acid lipoxygenase ALOX12 (Homo sapiens) (UniProt P18054) (assay: Primary qHTS assay for inhibitors of human arachidonate 12S-lipoxygenase (ALOX12): Round 2). Conditions: purified 12hLO, xylenol orange hydroperoxide absorbance; activity change, negative = inhibition: at 108 µM (top of the series) unless noted.
Method in brief: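 Purified human 12hLO at 150 nM in 25 mM Hepes, 0.01% Triton X-100, pH 7.0, preincubated 15 min at room temperature with compound. Reaction started with 40 uM arachidonic acid, 30 min at room temperature. Hydroperoxide measured by Fe-xylenol orange, 573/405 nm absorbance ratio.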
With `CS(=O)(=O)N1CCCCC1c1cc(C(=O)Nc2cccc(C#N)c2)no1` (stereo unspecified) the Potency was “inactive”. With `COC(=O)C1=C(C)N(C)C(=NCC2CC2)NC1c1ccc(Cl)cc1` (stereo unspecified) the Potency was inconclusive: 15.8 µM [inhibitor, partial curve, poor fit]. `COC(=O)c1ccc(Oc2coc3cc(OC(=O)c4ccccc4Br)ccc3c2=O)cc1` was tested, and the Potency was inconclusive: 79.4 µM [inhibitor, single point]. `O=C(Oc1ccccc1)N1CCC(Oc2cnc3c(ccn3-c3cncnc3)c2)CC1` was tested, and the Potency was inconclusive: 28.2 µM [inhibitor, partial curve, poor fit]. With `CCC(C)Nc1ccc2c(cc1=O)[C@@H](NC(C)=O)CCc1cc(OC)c(OC)c(OC)c1-2` (stereo partly specified) the Potency was inconclusive: 14.1 µM [inhibitor, partial curve, poor fit]. For `COc1ccc2c(c1)-c1nc(NC(=O)c3cccc(Br)c3)sc1CC2`, the Potency was inconclusive: 56.2 µM [inhibitor, partial curve, poor fit]. With `CN(C)CCOC(=O)C1(c2ccccc2)CCOCC1` the Potency was inconclusive: 44.7 µM [inhibitor, partial curve, poor fit]. `c1ccc2c(Nc3ccncc3)nc(-c3ccc4c(c3)OCO4)nc2c1` was tested, and the Potency was inconclusive: 8.91 µM [inhibitor, partial curve, poor fit]. For `CN(/C=C/[N+](=O)[O-])c1ccccc1`, the Potency was inconclusive: 3.55 µM [inhibitor, full curve, poor fit]. `CC(C)(C)c1cc(CCCSCCCc2cc(C(C)(C)C)c(O)c(C(C)(C)C)c2)cc(C(C)(C)C)c1O` was tested, and the Potency was inconclusive: 5.62 µM [inhibitor, partial curve, poor fit]. In the case of `O=C(CSC1=NS(=O)(=O)c2cc(Cl)ccc2N1)Nc1cccc(F)c1`, the Potency is reported as inconclusive: 39.8 µM [inhibitor, partial curve, poor fit]. For `COc1ccc(S(=O)(=O)N2CCN(CC(=O)c3ccc(O)c(O)c3)CC2)cc1`, the Potency was inconclusive: 17.8 µM [inhibitor, partial curve]. For `Cc1sc(NC(=O)CC2(CC(=O)O)CCCCC2)c(C(N)=O)c1-c1ccccc1`, the Potency was “inactive”. `CCOC(=O)c1c(NC(=O)c2cc(-c3cccc(Cl)c3)on2)sc(C(C)=O)c1C` was tested, and the Potency was inconclusive: 44.7 µM [inhibitor, partial curve, poor fit]. With `O=C(O)CSc1c2c(nc3cc(C(=O)NC4CCCCCC4)ccc13)CCCC2` the Potency was inconclusive: 28.2 µM [inhibitor, single point]. In the case of `CCCCCCCCN1C(=O)[C@H](CC(=O)NCc2ccc(OC)c(OC)c2)C[C@@]2(C(=O)OC)CC(C)(C)CC=C12`, the Potency is reported as inconclusive: 100 µM [inhibitor, single point]. `CN(C)C(CNC(=O)CCc1ncc(-c2ccc(F)cc2)o1)c1ccco1` (stereo unspecified) was tested, and the Potency was inconclusive: 0.224 µM [inhibitor, full curve, poor fit]. For `CCNC(=O)CN1C(=O)NC(CCc2ccccc2)(C2CCNCC2)C1=O` (stereo unspecified), the Potency was inconclusive: 31.6 µM [inhibitor, full curve, poor fit]. In the case of `CC(C)(O)/C=C/C[C@](C)(O)C1CC[C@]2(C)C1[C@H](O[C@H]1O[C@@H](CO)[C@H](O)[C@@H](O)[C@@H]1O)CC1[C@@]3(C)CC[C@H](O)C(C)(C)C3[C@@H](O)C[C@]12C` (stereo partly specified), the Potency is reported as inconclusive: 35.5 µM [inhibitor, partial curve]. In the case of `COc1ccc(Cl)cc1N/C(N)=N/c1nc(CSc2ccc(C)cc2)cc(=O)[nH]1`, the Potency is reported as “inactive”. `CC1CCN(S(=O)(=O)c2cc(C(=O)N3CCN(c4cccc(Cl)c4)CC3)n(C)c2)CC1` was tested, and the Potency was inconclusive: 50.1 µM [inhibitor, partial curve, poor fit]. For `Cc1cccc(C(CC(=O)Nc2ccc(-c3ccno3)cc2)n2cccc2)c1` (stereo unspecified), the Potency was “inactive”. For `COc1ccc2c(c1)c(=O)oc1c(C)c(OCc3cc(C(=O)O)oc3C)ccc12`, the Potency was inconclusive: 22.4 µM [inhibitor, partial curve, poor fit]. `O=C(CN1C(=O)NC2(CCCc3ccccc32)C1=O)NCc1ccc(Cl)cc1Cl` (stereo unspecified) was tested, and the Potency was inconclusive: 56.2 µM [inhibitor, single point]. In the case of `NC(=S)NN=C1CCCCCCCCCCCCC1`, the Potency is reported as inconclusive: 39.8 µM [inhibitor, partial curve, poor fit]. With `COc1cc(O)c(C(CCN2CCN(c3ccccc3)CC2)c2cc(OC)c(OC)c(OC)c2)c(OC)c1` (stereo unspecified) the Potency was inconclusive: 56.2 µM [inhibitor, partial curve, poor fit]. With `CCc1ccccc1NC(=O)N1CCC(Oc2ncccc2C(=O)N2CCOCC2)C1` (stereo unspecified) the Potency was inconclusive: 79.4 µM [inhibitor, single point]. For `CC1=C[C@@H](CNC(=O)CCC(=O)O)[C@H](C(C)C)C[C@H]1Cc1nc2ccc(Cl)cc2[nH]1`, the Potency was inconclusive: 31.6 µM [inhibitor, partial curve, poor fit]. For `O=C(NCC1CC1)C1Cc2c(-c3cccc(F)c3)ccnc2O1` (stereo unspecified), the Potency was inconclusive: 100 µM [inhibitor, partial curve, poor fit]. With `Cc1cc(C)cc(OCCNC(=O)CCc2ccccc2)c1` the Potency was inconclusive: 39.8 µM [inhibitor, partial curve, poor fit]. In the case of `COc1ccc(Nc2ncnc3c2cnn3Cc2ccc(C)cc2)cc1`, the Potency is reported as inconclusive: 31.6 µM [inhibitor, partial curve, poor fit]. With `CC(=O)N1CCN(c2ccc(NC(=O)C(c3ccccc3)c3ccccc3)cc2)CC1` the Potency was “inactive”. With `CC(C)(C)c1nc(C(=O)N2CCN(c3ncccn3)CC2)n2ccncc12` the Potency was inconclusive: 4.47 µM [inhibitor, full curve, poor fit]. With `O=C(CN1C(=O)c2cccc3cccc1c23)Nc1ccc2c(c1)OCO2` the Potency was “inactive”. `COC(=O)CC1C(=O)NCCN1C(=S)Nc1cc(C)cc(C)c1` (stereo unspecified) was tested, and the Potency was “inactive”. For `COc1ccc(Nc2cc(C)nc3ccc(Cl)cc23)cc1`, the Potency was “inactive”. `FC(F)(F)c1cccc(-c2cc3nc(NC4CCCCC4)ccn3n2)c1` was tested, and the Potency was inconclusive: 44.7 µM [inhibitor, partial curve, poor fit]. With `CCCc1ccc(S(=O)(=O)N2CCN(C3(CC)CCN(C(=O)NC)C3)CC2)cc1` (stereo unspecified) the Potency was inconclusive: 14.1 µM [inhibitor, partial curve, poor fit]. `COc1ccc(CNCCCn2cnc(C(=O)Nc3ccc(C)c(C)c3)n2)cc1` was tested, and the Potency was inconclusive: 44.7 µM [inhibitor, partial curve, poor fit]. For `CCCC(N)CCC`, the Potency was inconclusive: 39.8 µM [inhibitor, single point]. In the case of `O=C(NC1CCCC1)C1CCCN(C(=O)c2ccc3cc[nH]c3c2)C1` (stereo unspecified), the Potency is reported as inconclusive: 126 µM [inhibitor, single point]. For `COc1ccc(S(=O)(=O)N2CCOCC2)cc1NC(=O)COc1ccccc1`, the Potency was inconclusive: 56.2 µM [inhibitor, partial curve, poor fit]. With `CCc1ccc(C(=O)COC(=O)[C@@H](NC(N)=O)[C@@H](C)CC)cc1` the Potency was inconclusive: 126 µM [inhibitor, single point]. In the case of `O=S(=O)(c1ccc(Oc2ccccc2)cc1)N1CCOCC1`, the Potency is reported as “inactive”. With `Cc1ccccc1CN1CCc2nc(C(=O)NCCOc3ccccc3)oc2CC1` the Potency was inconclusive: 2.51 µM [inhibitor, full curve, poor fit]. For `O=C(c1ccc(-c2noc(C3CC3)n2)cc1)N1CCC2(CCOCC2)CC1`, the Potency was “inactive”. In the case of `CCOC(=O)Nc1cc(C(=O)OC)ccc1C`, the activity change, negative = inhibition is reported as inconclusive: -34.6% [inhibitor]. In the case of `c1ccc(NC(c2ccccc2)c2ccncc2)cc1` (stereo unspecified), the Potency is reported as inconclusive: 5.01 µM [inhibitor, full curve, poor fit]. For `O=[N+]([O-])c1ccc(C=NNc2ccccc2)cc1`, the Potency was inconclusive: 44.7 µM [inhibitor, partial curve, poor fit]. For `Cc1ccc(NS(=O)(=O)c2ccc(-c3cnc(C4CC4)o3)cc2)cc1F`, the Potency was active: 3.55 µM. With `Cc1nonc1CN(C)C(=O)C1CCCN(C2CCN(C(=O)C3CC3)CC2)C1` (stereo unspecified) the Potency was “inactive”. `COc1ccc(C2=Nn3c(nnc3-c3ccccc3Cl)SC2)cc1OCC1CC1` was tested, and the Potency was inconclusive: 79.4 µM [inhibitor, partial curve, poor fit]. In the case of `NC(=O)c1c(NC(=O)CN2CCCC2)sc2c1CCCC2`, the Potency is reported as “inactive”. `O=C(Nc1ccc(Cl)cc1Cl)c1cnc2ccccc2n1` was tested, and the Potency was inconclusive: 20 µM [inhibitor, partial curve, poor fit]. For `COc1cc(OC)cc(C(=O)NC(=S)Nc2ccc3c4c(cccc24)CC3)c1`, the Potency was inconclusive: 31.6 µM [inhibitor, single point]. `COc1ccccc1C(=O)NNC(=O)c1ccccc1` was tested, and the Potency was inconclusive: 0.631 µM [inhibitor, full curve, poor fit]. In the case of `COCCN1C(=O)c2ccccc2C(C(=O)NCCc2ccc(Cl)cc2)C12CCCC2` (stereo unspecified), the Potency is reported as inconclusive: 22.4 µM [inhibitor, partial curve, poor fit]. With `CCOc1ccccc1Nc1nc2ccccc2nc1NS(=O)(=O)c1ccc(Cl)cc1` the Potency was inconclusive: 14.1 µM [inhibitor, full curve, poor fit]. In the case of `COc1ccc(C(=O)n2nc(-c3cccnc3)nc2NCc2ccccc2)cc1OC`, the Potency is reported as inconclusive: 50.1 µM [inhibitor, partial curve, poor fit]. In the case of `CC(C)n1c(N2CCN(C(=O)c3cccs3)CC2)nc2ccccc21`, the Potency is reported as “inactive”. In the case of `Oc1c(Br)cc(Br)c(/C=N/n2c(-c3ccccc3)n[nH]c2=S)c1Br`, the Potency is reported as active: 17.8 µM.
